Patent US11858993B2, “Multi-specific antibodies with affinity for human A33 antigen and DOTA metal complex and uses thereof” (Memorial Sloan Kettering Cancer Center, priority 2015, dated 2024)

Assays:
SW1222 s.c. xenografts = assay: Three-cycle theranostic PRIT with nanoSPECT/CT dosimetry; format: in vivo, Nude mice; conditions: three-cycle PRIT (total 165 MBq)
Procedure: Nude mice bearing established SW1222 s.c. xenografts (n=20; tumor volume=102±40 mm^3; average±standard deviation (SD)) underwent treatment (n=5-10/group) with either: no treatment (n=5), ^177Lu-DOTA-Bn only (n=5), or a three-cycle PRIT regimen consisting of anti-GPA33 PRIT+55 MBq of ^177Lu-DOTA-Bn (n=10; total: 165 MBq). Serial nanoSPECT/CT imaging was conducted on five randomly selected mice undergoing DPRIT up to 160 hours post-injection of the first cycle of ^177Lu-DOTA-Bn for dosimetry calculations.

[1] = tested on: A33-positive SW1222 tumor; assay: Estimation of absorbed doses and therapeutic index for PRIT; format: in vivo, mice; conditions: ratio of absorbed doses; single-cycle PRIT
Source text: Exemplary estimates of absorbed doses for tumor and select normal tissue in female athymic mice carrying s.c. A33 positive-colorectal cancer tumors for PRIT including the optimum huA33-C825 and dextran-clearing agent doses are set forth in Table 6.

## huA33-C825: bispecific antibody: humanized A33 IgG1 with murine C825 anti-DOTA-Bn scFv linked to the light chain C-terminus
SW1222 s.c. xenografts
  therapeutic index (TI), blood: 93
  therapeutic index (TI), kidney: 16
[1]
  Therapeutic Index, tumor to Blood: 73
  Therapeutic Index, tumor to Bone: 110
  Therapeutic Index, tumor to Heart: 47
  Therapeutic Index, tumor to Kidneys: 12
  Therapeutic Index, tumor to Large Intestine: 82
  Therapeutic Index, tumor to Liver: 10
  Therapeutic Index, tumor to Lung: 37
  Therapeutic Index, tumor to Muscle: 219
  Therapeutic Index, tumor to Small Intestine: 132
  Therapeutic Index, tumor to Spleen: 10
  Therapeutic Index, tumor to Stomach: 110
